Positions count from the first letter of the chain named. No constants are given. Whether binding was seen depends on the method and setting. Binding seen in cells or lysates may run through a third protein. Some binding calls cover weakened binding; strength is not graded here. Tags and fused reporters may be left off the sequences shown.
Columns and labels:
Assay in all cases: co-IP; HeLa cells cotransfected with Mia40-MYC and CHCHD10-HA variants; lysis buffer 120 mM NaCl, 1 mM EDTA, 0.5% NP-40, 20 mM Tris-HCl pH 8; lysate incubated with HA-labeled magnetic beads overnight at 4°C; immunoblot with antibodies against Mia40 and HA
CHCHD10-HA Q108* (human) = biological target: T1, CHCHD10-HA Q108* (human) (UniProt Q8WYQ3)
T1 sequence: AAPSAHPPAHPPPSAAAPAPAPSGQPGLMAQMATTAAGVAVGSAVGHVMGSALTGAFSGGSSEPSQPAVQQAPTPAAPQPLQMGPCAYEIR

CHCHD10-HA Q108P (human) = biological target: T2, CHCHD10-HA Q108P (human) (UniProt Q8WYQ3)
T2 sequence: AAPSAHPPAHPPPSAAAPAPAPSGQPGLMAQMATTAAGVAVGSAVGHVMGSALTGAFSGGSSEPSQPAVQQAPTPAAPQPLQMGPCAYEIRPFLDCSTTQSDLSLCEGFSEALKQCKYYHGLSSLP

[1] = biological target: T3, CHCHD10-HA wild-type (human) (UniProt Q8WYQ3)
T3 sequence: T2 sequence with P92Q

CHCHD10-HA ΔCHCH (human) = biological target: T4, CHCHD10-HA ΔCHCH (human) (UniProt Q8WYQ3)
T4 sequence: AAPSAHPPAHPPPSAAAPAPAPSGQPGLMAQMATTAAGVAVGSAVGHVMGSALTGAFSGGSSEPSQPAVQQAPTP

binding (CHCHD10-HA Q108* (human)): binds weakly | binding (CHCHD10-HA Q108P (human)): binds | binding [1]: binds | binding (CHCHD10-HA ΔCHCH (human)): no binding
B1: Mia40-MYC (enzyme, UniProt Q8N4Q1 1-142)
chain: MSYCRQEGKDRIIFVTKEDHETPSSAELVADDPNDPYEEHGLILPNGNINWNCPCLGGMASGPCGEQFKSAFSCFHYSTEEIKGSDCVDQFRAMQECMQKYPDLYPQEDEDEEEEREKKPAEQAEETAPIEATATKEEEGSS

Reference: paper PMC5991575
